Test results from PubChem BioAssay AID652054 (National Center for Advancing Translational Sciences (NCATS), 2013).
The whole screen tested about 360,000 compounds, of which about 9,100 (2.5%) were called active. This list was built around the results that the source calls inconclusive (neither active nor inactive); the mix of calls is not that of the screen. Cut-off read from the data, not from the text of the source: active = max response below about -50%; inconclusive = no clear call, values can overlap the other calls; inactive = above that.

The chains behind the UniProt entries cited, without tags or fusion partners.
UniProt P35462, whole entry, looked up: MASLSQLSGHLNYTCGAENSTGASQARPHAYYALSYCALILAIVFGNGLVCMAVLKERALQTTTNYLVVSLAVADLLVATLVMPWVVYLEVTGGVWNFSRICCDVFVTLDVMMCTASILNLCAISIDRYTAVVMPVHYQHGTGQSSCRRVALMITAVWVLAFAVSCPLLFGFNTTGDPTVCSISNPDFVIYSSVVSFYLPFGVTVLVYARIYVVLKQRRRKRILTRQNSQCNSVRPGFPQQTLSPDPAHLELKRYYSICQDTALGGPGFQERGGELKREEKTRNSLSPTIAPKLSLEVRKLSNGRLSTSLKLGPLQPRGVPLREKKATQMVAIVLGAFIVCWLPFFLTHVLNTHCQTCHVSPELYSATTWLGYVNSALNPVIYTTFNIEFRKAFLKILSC

The compounds below were run against D(3) dopamine receptor (Homo sapiens) (UniProt P35462) (assay: qHTS of D3 Dopamine Receptor Antagonist: qHTS). Conditions: D3R cells, DiscoveRx beta-arrestin luminescence, antagonist mode; stronger effect = lower value.
Method in brief: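 Cells expressing the human receptor were seeded at 1500 cells/well, incubated overnight at 37 degrees C in 5% CO2, then exposed to library compounds with dopamine controls for 90 minutes at 37 degrees C before luminescent detection.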
% is set by controls: 0 for no effect and ±100 for the full control effect.

**Q.** `Fc1ccc(OCc2nc(-c3ccncc3)n[nH]2)cc1` was tested. Which max response, negative = inhibition did it give?
**A.** inconclusive: -38.2%

**Q.** With `CCCCCN(C(=O)CCC(=O)OC(C)C(=O)c1ccc(CC)cc1)c1c(N)n(CCCC)c(=O)[nH]c1=O` (stereo not drawn) as the compound, how does the max response, negative = inhibition read?
**A.** inactive: 2.55%

**Q.** With `CCCOc1ccc(N2C(=O)CC(NCC(=O)OCC)C2=O)cc1` (stereo not drawn) as the compound, how does the max response, negative = inhibition read?
**A.** inconclusive: -46.4%

**Q.** With `CCc1noc(C)c1C(=O)Nc1nc(-c2ccc(NC(C)=O)cc2)cs1` as the compound, how does the max response, negative = inhibition read?
**A.** inactive: 26.1%

**Q.** `Cc1occc1C(=O)Nc1cccc(Cl)c1Cl` was tested. Which max response, negative = inhibition did it give?
**A.** inactive: 0.622%

**Q.** `C#CCOCCOCCOCCNc1nc(N2CCN(C(=O)[C@H](CCC(=O)O)n3cc([C@@H](N)CCCCN)nn3)CC2)nc(N2CCN(C(=O)[C@H](CCC(=O)O)n3cc([C@@H](N)CCCCN)nn3)CC2)n1` was tested. Which max response, negative = inhibition did it give?
**A.** inconclusive: -47.5%

**Q.** For `COc1ccc(C2Oc3ccccc3N2C(C)=O)cc1` (stereo not drawn), which max response, negative = inhibition is on record?
**A.** inactive: -19.5%

**Q.** For `Cn1c(SCCN2CCCCC2)nnc1-c1ccccc1Br`, which max response, negative = inhibition is on record?
**A.** active: -63.3%

**Q.** With `c1ccc(-c2csc3ncn4nnnc4c23)cc1` as the compound, how does the max response, negative = inhibition read?
**A.** inconclusive: -31%

**Q.** Which max response, negative = inhibition does the source give for `CN1CCCN(Cc2ccc(Cl)cc2Cl)CC1` here?
**A.** active: -78%

**Q.** For `CCOc1ccccc1N1CCN(C(=S)Nc2ccc(S(=O)(=O)Nc3ncccn3)cc2)CC1`, which max response, negative = inhibition is on record?
**A.** inconclusive: -49.5%

**Q.** `Cc1ccc(OCCC(=O)NNC(=O)c2ccncc2)cc1` was tested. Which max response, negative = inhibition did it give?
**A.** inactive: 25.8%

**Q.** How did the max response, negative = inhibition turn out when `CCC(=O)Nc1ccc(-c2nnc(SCC(=O)Nc3nccs3)n2C)cc1` was run?
**A.** inactive: 4.63%

**Q.** For `Cc1cc(C)n2nc(C(=O)OCC(=O)Nc3ccc(C)c(F)c3)nc2n1`, which max response, negative = inhibition is on record?
**A.** inconclusive: -30.4%

**Q.** With `C[N+]1(CN2C(=O)C3C4C=CC(C4)C3C2=O)CCCCC1` (stereo not drawn) as the compound, how does the max response, negative = inhibition read?
**A.** inconclusive: -42.3%

**Q.** How did the max response, negative = inhibition turn out when `Cc1ccc(S(=O)(=O)N2C[C@@H]3[C@H]4CC[C@H](C4)[C@@H]3[C@@H](C)[C@@H]2c2cccn2Cc2ccccc2)cc1` was run?
**A.** inconclusive: -44.7%

**Q.** With `CCCC1=C(C(=O)OCC)C(c2ccc(N(C)C)cc2)n2ncnc2N1` (stereo not drawn) as the compound, how does the max response, negative = inhibition read?
**A.** inactive: -8.14%

**Q.** `O=C(NCc1cccc(C(F)(F)F)c1)c1ccc2sc([C@@H]3O[C@H](CO)[C@H](O)[C@H](O)[C@H]3O)nc2c1` was tested. Which max response, negative = inhibition did it give?
**A.** inconclusive: -31.8%

**Q.** How did the max response, negative = inhibition turn out when `CS(=O)(=O)N1N=C(c2ccc3nccnc3c2)CC1c1ccccc1` (stereo not drawn) was run?
**A.** inconclusive: -30.5%

**Q.** Which max response, negative = inhibition does the source give for `O=C(C(Cc1ccccc1)N1C(=O)c2ccccc2C1=O)N1c2ccccc2CCc2ccccc21` (stereo not drawn) here?
**A.** inconclusive: -35.3%

**Q.** Which max response, negative = inhibition does the source give for `C[N+]1(CCOc2ccc([N+](=O)[O-])cc2)CCOCC1` here?
**A.** inconclusive: -31.1%

**Q.** How did the max response, negative = inhibition turn out when `CC(=O)N/C(=C\c1ccc(F)cc1)C(=O)NC(Cc1ccccc1)C(=O)O` (stereo not drawn) was run?
**A.** inactive: 3.22%

**Q.** With `CC(=O)Nc1ccc2c(c1)C(=Nc1ccccc1)c1ccccc1-2` as the compound, how does the max response, negative = inhibition read?
**A.** inactive: -0.978%
